Binding data for 15 molecules are collected here from US20030219427A1, “TPL-2/COT kinase and methods of use” (priority 1998, published 2003).

The target in experiment [1] is T1, p105(369-896) (Homo sapiens (Human)) (UniProt P19838).
T1 sequence: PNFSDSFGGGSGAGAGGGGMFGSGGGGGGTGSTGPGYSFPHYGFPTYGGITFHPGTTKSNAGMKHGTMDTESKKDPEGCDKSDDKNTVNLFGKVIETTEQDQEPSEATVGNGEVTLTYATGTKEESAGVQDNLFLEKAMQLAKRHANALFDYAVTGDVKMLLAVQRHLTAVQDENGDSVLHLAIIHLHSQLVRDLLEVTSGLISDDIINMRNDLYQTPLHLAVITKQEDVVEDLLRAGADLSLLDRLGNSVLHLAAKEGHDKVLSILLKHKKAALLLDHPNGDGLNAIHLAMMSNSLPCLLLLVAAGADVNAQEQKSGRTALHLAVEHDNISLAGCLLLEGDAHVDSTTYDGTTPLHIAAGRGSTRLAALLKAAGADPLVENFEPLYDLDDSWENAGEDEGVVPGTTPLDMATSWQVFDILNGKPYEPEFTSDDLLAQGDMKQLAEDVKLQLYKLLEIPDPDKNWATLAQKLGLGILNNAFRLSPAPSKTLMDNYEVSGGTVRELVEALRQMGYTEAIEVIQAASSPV
Nature of the experiment: co-expression in Sf9 cells, purification of the complex from lysates.

In experiment [2] the target is T2, p105 C-terminus (residues 459 to 969) (Homo sapiens (Human)) (UniProt P19838).
T2 sequence: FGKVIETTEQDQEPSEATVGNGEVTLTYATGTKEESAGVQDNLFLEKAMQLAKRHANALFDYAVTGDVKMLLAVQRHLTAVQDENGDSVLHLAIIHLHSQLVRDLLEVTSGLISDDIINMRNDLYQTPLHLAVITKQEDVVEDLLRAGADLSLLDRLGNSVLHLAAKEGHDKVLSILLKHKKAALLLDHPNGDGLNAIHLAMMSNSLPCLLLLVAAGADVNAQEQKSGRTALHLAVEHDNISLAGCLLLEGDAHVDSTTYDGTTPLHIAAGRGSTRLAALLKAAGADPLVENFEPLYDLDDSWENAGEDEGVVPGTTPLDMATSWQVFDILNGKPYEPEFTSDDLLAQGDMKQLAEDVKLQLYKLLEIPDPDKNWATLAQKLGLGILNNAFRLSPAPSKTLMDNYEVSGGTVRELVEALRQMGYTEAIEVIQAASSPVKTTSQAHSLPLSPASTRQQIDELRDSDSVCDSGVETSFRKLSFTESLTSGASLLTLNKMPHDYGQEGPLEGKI
Kind of experiment: yeast two-hybrid assay.

The target of experiment [3] is HA-p105 (Homo sapiens (Human)) (UniProt P19838). Kind of experiment: immunoprecipitation and Western blot from co-transfected 293 cells.
Experiment [4] addresses endogenous NF-κB1 p105 (HeLa, Jurkat and 293 cells) (UniProt P19838). Kind of experiment: immunoprecipitation from transiently transfected 293 cells.
For experiment [5], the target named is HA-p105 (Homo sapiens (Human)) (UniProt P19838). Kind of experiment: co-expression in 293 cells, anti-Myc immunoprecipitation.
Experiment [6] shares this target. Kind of experiment: anti-HA co-immunoprecipitation from co-transfected 293 cells.
Experiment [7] concerns the target HA-p105L842A (Homo sapiens (Human)) (UniProt P19838). The description is as above.
Experiment [8] has as its target HA-p105Δ498-541 (Homo sapiens (Human)) (UniProt P19838). The experiment is described as above.
The target of experiment [9] is HA-p105ΔDD (Homo sapiens (Human)) (UniProt P19838). The description is as above.
Experiment [10] deals with NF-κB1 p105 (Homo sapiens (Human)) (UniProt P19838). Nature of the experiment: co-immunoprecipitation of in vitro translated 35S-labelled proteins.
Experiment [11] deals with HA-p105 (Homo sapiens (Human)) (UniProt P19838). Kind of experiment: anti-HA immunoprecipitation and Western blot from co-transfected 293 cells.
For experiment [12], the target named is myc-p105 (Homo sapiens (Human)) (UniProt P19838). Nature of the experiment: anti-myc immunoprecipitation from pulse-labelled co-transfected 3T3 cells (FIG. 6A).
The target of experiment [13] is NF-κB1 p105 (Homo sapiens (Human)) (UniProt P19838). Kind of experiment: co-immunoprecipitation of in vitro translated proteins.
For experiment [14], the target named is HA-p105 (1-892) (Homo sapiens (Human)) (UniProt P19838). Kind of experiment: immunoprecipitation and Western blot from co-transfected 293 cells. For orientation: A western blot detects proteins with antibodies after separation by electrophoresis.
Experiment [15] has as its target biotinylated TPL-2398-467 peptide. Kind of experiment: surface plasmon resonance (BIAcore), biotinylated peptide on streptavidin chip, p105 protein injected. Background: Surface plasmon resonance follows binding to a sensor surface in real time, without labels.
Experiment [16] has as its target T3, p105(400-896) (Homo sapiens (Human)) (UniProt P19838).
T3 sequence: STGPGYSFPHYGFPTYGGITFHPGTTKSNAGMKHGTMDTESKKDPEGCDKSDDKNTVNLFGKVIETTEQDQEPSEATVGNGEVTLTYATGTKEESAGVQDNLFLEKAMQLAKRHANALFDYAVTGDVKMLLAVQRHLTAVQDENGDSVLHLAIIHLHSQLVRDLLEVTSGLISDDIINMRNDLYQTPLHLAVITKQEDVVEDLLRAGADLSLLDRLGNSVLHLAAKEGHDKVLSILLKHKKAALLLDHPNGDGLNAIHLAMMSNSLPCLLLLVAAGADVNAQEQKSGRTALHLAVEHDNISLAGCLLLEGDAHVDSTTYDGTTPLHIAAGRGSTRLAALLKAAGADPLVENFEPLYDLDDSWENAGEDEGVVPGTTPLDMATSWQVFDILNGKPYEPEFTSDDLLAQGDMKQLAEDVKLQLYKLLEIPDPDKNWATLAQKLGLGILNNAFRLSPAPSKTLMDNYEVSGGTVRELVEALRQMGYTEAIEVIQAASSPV
Kind of experiment: co-expression in HEK293 cells, isolation of the complex from lysates.

Experiment [17] concerns the target T4, p105(444-896) (Homo sapiens (Human)) (UniProt P19838).
T4 sequence: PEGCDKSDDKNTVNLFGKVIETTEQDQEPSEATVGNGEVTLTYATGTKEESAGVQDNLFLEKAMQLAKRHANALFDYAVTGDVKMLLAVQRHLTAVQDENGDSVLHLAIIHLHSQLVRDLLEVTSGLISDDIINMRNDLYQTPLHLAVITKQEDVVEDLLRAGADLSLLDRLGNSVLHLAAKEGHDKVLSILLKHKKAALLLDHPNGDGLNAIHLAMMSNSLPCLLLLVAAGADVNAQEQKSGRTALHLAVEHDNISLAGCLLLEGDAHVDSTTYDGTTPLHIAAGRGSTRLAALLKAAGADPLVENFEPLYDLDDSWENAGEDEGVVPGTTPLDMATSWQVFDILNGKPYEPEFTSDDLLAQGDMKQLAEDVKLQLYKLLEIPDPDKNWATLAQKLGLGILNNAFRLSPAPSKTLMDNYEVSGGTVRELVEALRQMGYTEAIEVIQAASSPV
The description is as above.

In experiment [18] the target is Myc-TPL-2 (Homo sapiens (Human)) (UniProt P41279). Nature of the experiment: incubation of Myc-TPL-2 immunoprecipitates with recombinant protein.
Experiment [19] deals with TPL-2 (Homo sapiens (Human)) (UniProt P41279). Kind of experiment: GST pull-down of in vitro translated 35S-labelled TPL-2.

These are yes or no findings as the source states them, for the method shown. For some assays here: In cells and extracts the contact can be indirect. Some entries that bind do so weakly or less than the wild type. For some assays here: Sequences can lack the tags named with a protein.

For “COT(1-467, M30V, D253N) (from UniProt P41279 1-467)”, in [1], the binding entry is listed as “binds”.
For “GAL4 fusion of just the C-terminal 92 amino acids of TPL-2 (from UniProt P41279 376-467)”, the binding result in [2] is listed as “binds”.
Regarding “M30 TPL-2ΔC (from UniProt P41279 30-397)”, the binding entry in [3] is “binds”.
Take Myc-TPL-2 (from UniProt P41279 1-467): in experiment [4], the binding result is “binds”.
Turning to Myc-TPL-2ΔC (from UniProt P41279 1-397), the binding entry in [5] was “binds”.
Consider “P131 TPL-2ΔC (from UniProt P41279 131-397)”, for which, in experiment [3], the binding result is reported as “binds”.
Same read-out and setting: to “Q104 TPL-2ΔC (from UniProt P41279 104-397)” belongs “binds”.
Regarding TPL-2 (from UniProt P41279 1-467), the binding entry in experiment [6], in experiment [7], in experiment [8], in experiment [9], in experiment [10] and in experiment [11] was “binds” in each case. For the same molecule, in experiment [12], the binding result is recorded as “binds”.
For TPL-2ΔC (from UniProt P41279 1-397), the binding entry in experiment [13], in experiment [14], in [3] and in [11] was “binds” each time.
Consider “recombinant p105 1-969 (from UniProt P19838 1-968)”, for which the binding result in experiment [15] is “binds”.

B1: Flag-COT(30-467) (enzyme, not shown: small tags and cut ends)
chain: MENLYASEEPAVYEPSLMTMCQDSNQNDERSKSLLLSGQEVPWLSSVRYGTVEDLLAFANHISNTAKHFYGQRPQESGILLNMVITPQNGRYQIDSDVLLIPWKLTYRNIGSDFIPRGAFGKVYLAQDIKTKKRMACKLIPVDQFKPSDVEIQACFRHENIAELYGAVLWGETVHLFMEAGEGGSVLEKLESCGPMREFEIIWVTKHVLKGLDFLHSKKVIHHDIKPSNIVFMSTKAVLVDFGLSVQMTEDVYFPKDLRGTEIYMSPEVILCRGHSTKADIYSLGATLIHMQTGTPPWVKRYPRSAYPSYLYIIHKQAPPLEDIADDCSPGMRELIEASLERNPNHRPRAADLLKHEALNPPREDQPRCTSLDSALLERKRLLSRKELELPENIADSSCTGSTEESEMLKRQRSLYIDLGALAGYFNLVRGPPTLEYG
B1: the binding result in experiment [16] and in [17] was “binds” in each case.

B2: recombinant p105498-969 protein (other)
chain: QDNLFLEKAMQLAKRHANALFDYAVTGDVKMLLAVQRHLTAVQDENGDSVLHLAIIHLHSQLVRDLLEVTSGLISDDIINMRNDLYQTPLHLAVITKQEDVVEDLLRAGADLSLLDRLGNSVLHLAAKEGHDKVLSILLKHKKAALLLDHPNGDGLNAIHLAMMSNSLPCLLLLVAAGADVNAQEQKSGRTALHLAVEHDNISLAGCLLLEGDAHVDSTTYDGTTPLHIAAGRGSTRLAALLKAAGADPLVENFEPLYDLDDSWENAGEDEGVVPGTTPLDMATSWQVFDILNGKPYEPEFTSDDLLAQGDMKQLAEDVKLQLYKLLEIPDPDKNWATLAQKLGLGILNNAFRLSPAPSKTLMDNYEVSGGTVRELVEALRQMGYTEAIEVIQAASSPVKTTSQAHSLPLSPASTRQQIDELRDSDSVCDSGVETSFRKLSFTESLTSGASLLTLNKMPHDYGQEGPLEGKI
On to B2, for which the binding result in [18] and in [15] was “binds” each time.

B3: recombinant p105808-892 protein (p105 DD) (other)
chain: DMKQLAEDVKLQLYKLLEIPDPDKNWATLAQKLGLGILNNAFRLSPAPSKTLMDNYEVSGGTVRELVEALRQMGYTEAIEVIQAA
With B3, in experiment [19], the binding entry is “binds”.

B4: recombinant p105 497-782 (protein)
chain: VQDNLFLEKAMQLAKRHANALFDYAVTGDVKMLLAVQRHLTAVQDENGDSVLHLAIIHLHSQLVRDLLEVTSGLISDDIINMRNDLYQTPLHLAVITKQEDVVEDLLRAGADLSLLDRLGNSVLHLAAKEGHDKVLSILLKHKKAALLLDHPNGDGLNAIHLAMMSNSLPCLLLLVAAGADVNAQEQKSGRTALHLAVEHDNISLAGCLLLEGDAHVDSTTYDGTTPLHIAAGRGSTRLAALLKAAGADPLVENFEPLYDLDDSWENAGEDEGVVPGTTPLDMATS
For B4, the binding result in experiment [15] was “binds”.

B5: recombinant p105 498-806 (protein)
chain: QDNLFLEKAMQLAKRHANALFDYAVTGDVKMLLAVQRHLTAVQDENGDSVLHLAIIHLHSQLVRDLLEVTSGLISDDIINMRNDLYQTPLHLAVITKQEDVVEDLLRAGADLSLLDRLGNSVLHLAAKEGHDKVLSILLKHKKAALLLDHPNGDGLNAIHLAMMSNSLPCLLLLVAAGADVNAQEQKSGRTALHLAVEHDNISLAGCLLLEGDAHVDSTTYDGTTPLHIAAGRGSTRLAALLKAAGADPLVENFEPLYDLDDSWENAGEDEGVVPGTTPLDMATSWQVFDILNGKPYEPEFTSDDLLAQ
Turning to B5, the binding result in [15] was “binds”.
